# Experimental data published in patent US20090202660A1, “Agents and Methods for Osteogenic Oxysterols Inhibition of Oxidative Stress on Osteogenic Cellular Differentiation” (The Regents of the University of California, priority 2005, published 2009).
# Some entries share one result that the patent states for a list of compounds.
# System: marrow stromal cells
# Test: Markers of osteogenic differentiation in marrow stromal cells (ALP, osteocalcin mRNA, mineral formation)
# Format: cell-based, mouse
# Conditions: non-selective COX inhibitors at 1-10 μM
# Protocol: Next, a combination of 22R and 20S oxysterols (RS, 2.5 μM each) were added in the presence or absence of SC as indicated. After 3 days, ALP activity was measured as described earlier. […] (B) M2 cells were treated as described in (A) and after 10 days matrix mineralization in cultures was quantified by a ^45Ca incorporation assay as described earlier. […] (C) M2 cells were pretreated with 20 μM SC for 4 hours, followed by the addition of RS in the presence or absence of SC as described above. After 8 days, total RNA was isolated and analyzed for osteocalcin (Osc) and […] expression by Northern blotting as previously described. Data from densitometric analysis of the Northern blot is shown in (D) as the average of duplicate samples, normalized to 18S rRNA. […] After 3 days, ALP activity was measured as previously described. […] After 10 days, matrix mineralization in cultures was quantified using a ^45Ca incorporation assay as previously described. […]
# The purpose of the study was to identify other osteogenic and anti-adipogenic oxysterols based on the chemical structure of previously identified oxysterols. […] In order to assess osteogenic differentiation of cells, one or more markers of osteogenic differentiation were measured in untreated cells and cells treated with the test oxysterols. […]
row,Structure (SMILES),inhibition of the osteogenic effects of 22R+20S oxysterol combination
1,CC(C(=O)O)c1ccc(-c2ccccc2)c(F)c1 (centres unmarked) [Fluriprofin],25-30%
2,CC(C)Cc1ccc(C(C)C(=O)O)cc1 (centres unmarked) [Ibuprofen],25-30%
